Data reported in doi:10.1101/2022.11.02.514796.
No constants are given. Whether binding was seen depends on the method and setting. Binding seen in cells or lysates may run through a third protein. Some binding calls cover weakened binding; strength is not graded here. Tags and fused reporters may be left off the sequences shown.

Assays:
SIX1 (human) = biological target: T1, SIX1 (human) (UniProt Q15475); experiment: co-IP
T1 sequence: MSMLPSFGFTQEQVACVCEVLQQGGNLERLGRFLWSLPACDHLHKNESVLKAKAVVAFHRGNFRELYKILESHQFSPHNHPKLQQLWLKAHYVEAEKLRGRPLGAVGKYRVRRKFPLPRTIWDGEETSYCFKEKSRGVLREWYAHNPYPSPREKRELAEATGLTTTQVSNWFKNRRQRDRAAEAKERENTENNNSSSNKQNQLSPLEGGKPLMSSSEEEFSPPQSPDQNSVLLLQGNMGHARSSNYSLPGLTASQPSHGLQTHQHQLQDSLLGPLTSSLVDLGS

SIX1-Q177R (human) = biological target: T2, SIX1-Q177R (human) (UniProt Q15475); experiment: co-IP
T2 sequence: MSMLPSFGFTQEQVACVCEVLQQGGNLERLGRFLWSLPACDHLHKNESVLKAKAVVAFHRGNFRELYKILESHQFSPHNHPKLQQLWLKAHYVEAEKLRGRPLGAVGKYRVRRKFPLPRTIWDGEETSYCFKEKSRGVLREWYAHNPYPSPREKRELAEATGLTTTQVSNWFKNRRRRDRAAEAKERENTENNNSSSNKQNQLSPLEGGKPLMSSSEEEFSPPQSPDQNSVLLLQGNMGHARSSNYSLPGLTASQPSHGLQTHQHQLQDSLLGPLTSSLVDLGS

B1: MEIS1-3xFLAG (protein, UniProt O00470 1-390)
chain: MAQRYDDLPHYGGMDGVGIPSTMYGDPHAARSMQPVHHLNHGPPLHSHQYPHTAHTNAMAPSMGSSVNDALKRDKDAIYGHPLFPLLALIFEKCELATCTPREPGVAGGDVCSSESFNEDIAVFAKQIRAEKPLFSSNPELDNLMIQAIQVLRFHLLELEKVHELCDNFCHRYISCLKGKMPIDLVIDDREGGSKSDSEDITRSANLTDQPSWNRDHDDTASTRSGGTPGPSSGGHTSHSGDNSSEQGDGLDNSVASPSTGDDDDPDKDKKRHKKRGIFPKVATNIMRAWLFQHLTHPYPSEEQKKQLAQDTGLTILQVNNWFINARRRIVQPMIDQSNRAVSQGTPYNPDGQPMGGFVMDGQQHMGIRAPGPMSGMGMNMGMEGQWHYM
B1 was tested, and the binding (SIX1 (human)) was “binds” and the binding (SIX1-Q177R (human)) was “binds”.
